Measured values reported in PubChem BioAssay AID493014 (National Center for Advancing Translational Sciences (NCATS), 2011).
The other results are listed elsewhere or left out. Further columns of the screen follow, without active or inactive calls. Most of these compounds were active or inconclusive in the main read-out, so they are no random draw. The note in brackets gives the kind of curve behind each potency; many fits are weak.

Test: qHTS Assay to Find Inhibitors of Chronic Active B-Cell Receptor Signaling
Conditions: ABC-DLBCL IkBa-CBG/CBR reporter, luminescence ratio (green luciferase fused to IkBa over red control in TMD8 lymphoma cells), 4 h
Procedure, shortened: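 TMD8 human ABC-DLBCL cells with doxycycline-inducible IκBα–green luciferase fusion and unfused red luciferase, in 0.5% FBS medium; compounds up to 46 uM, 4 h at 37C. Green/red luminescence ratio, filter-overlap corrected, fitted to concentration-response curves.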

[1] = measured here: CBR red luminescence, cell number
[2] = measured here: IkBa-CBG green luminescence

Row | Compound | AC50 [1] | AC50 [2]
1 | COc1cccc(NC(=O)Nc2nc(-c3ccc(OC)c(OC)c3)cs2)c1 | 4.47 µM [falling, full curve] | 11.2 µM [rising, partial curve, poor fit]
2 | CCc1nnc(NC(=O)CSc2ncc(-c3ccccc3)n2C)s1 | 14.1 µM [rising, single point] | 22.4 µM [falling, single point]
3 | O=C(Nc1ccsc1C(=O)O)c1ccccc1 | 5.01 µM [falling, partial curve] | –
4 | CC(C)C[C@H](N)c1nnc(S(=O)(=O)Cc2cccc(F)c2)o1 | 18.4 µM [falling, partial curve, poor fit] | –
5 | O=C(Nc1ccc(Cl)cc1)c1cc(S(=O)(=O)N2CCCc3ccccc32)ccc1F | 6.31 µM [falling, partial curve] | –
6 | CCc1c(C)c2ccc(OCC(=O)OC)cc2oc1=O | 23.1 µM [rising, single point] | –
7 | CCc1cc2c(=O)c(-c3nc4ccccc4n3C)coc2c(CN2CCOCC2)c1O | 18.4 µM [falling, single point] | –
8 | C/C(N)=C(/C#N)C(=O)CSc1nc2ccccc2c(=O)n1CCCO | 0.00411 µM [rising, full curve, poor fit] | –
9 | Cn1c(=O)n(C)c2cc(NC(=O)C(F)(F)F)ccc21 | 29.1 µM [rising, single point] | –
10 | CCOC(=O)c1c(C)[nH]c(C)c1S(=O)(=O)N1CCCC(C(=O)NCc2ccc(C)cc2)C1 (stereo unspecified) | 5.01 µM [rising, full curve] | –
11 | CCCCCc1cccnc1 | 11.2 µM [falling, partial curve, poor fit] | –
12 | O=C(Nc1ccc(N2CCCCCC2)cc1)c1cccc(S(=O)(=O)N2CCOCC2)c1 | 14.6 µM [falling, partial curve, poor fit] | –
13 | CCOc1ccc(C2=C(C(=O)CC)Sc3nncn3N2C(=O)CC)cc1 | 35.5 µM [rising, partial curve, poor fit] | 35.5 µM [falling, single point]
14 | CCC(CC)NC(=O)C1CCN(c2ccc(S(=O)(=O)N3CCOCC3)cc2[N+](=O)[O-])CC1 | 1.3 µM [rising, full curve, poor fit] | –
15 | C#CCSc1n[nH]c(-c2ccco2)n1 | 1.12 µM [rising, partial curve] | –
16 | O=S(=O)(Nc1ncccn1)c1ccc(Nc2ncnc3ccccc23)cc1 | 29.1 µM [rising, single point] | –
17 | COc1ccc(CNC(=O)CN=C2NC(=O)C(c3ccccc3)(c3ccccc3)N2)cc1 | 16.4 µM [rising, partial curve, poor fit] | –
18 | COc1ccc(OCC(=O)Nc2ccccc2N2CCCCC2)cc1 | 20 µM [rising, single point] | 22.4 µM [falling, single point]
19 | COc1cccc(CNC(=O)c2ccc3c(c2)N(C)CCS3)c1OC | 5.62 µM [falling, partial curve] | –
20 | Cc1ccc(S(=O)(=O)CCC(=O)OCC(=O)Nc2cc(C)on2)cc1 | 35.5 µM [falling, single point] | –
21 | Cc1ccc2c(c1)-n1c(nc3ccccc3c1=O)C(Cc1ccc(O)cc1)NC2=O (stereo unspecified) | 16.4 µM [rising, partial curve] | –

Whole records, quoted from the list:
COc1ccc(CNC(=O)CN=C2NC(=O)C(c3ccccc3)(c3ccccc3)N2)cc1 reads AC50 [1]: 16.4 µM [rising, partial curve, poor fit]
CCOc1ccc(C2=C(C(=O)CC)Sc3nncn3N2C(=O)CC)cc1 reads AC50 [1]: 35.5 µM [rising, partial curve, poor fit]; AC50 [2]: 35.5 µM [falling, single point]

Following part:

Row | Compound | AC50 [1] | AC50 [2]
22 | O=C(c1cccnc1NCc1ccccc1)N1CCOCC1 | 29.1 µM [rising, single point] | –
23 | Cc1cc(C)c(C#N)c(OCc2ccc(Cl)nc2)n1 | 12.6 µM [rising, partial curve] | –
24 | Clc1ccc(N=c2ssnc2Cl)cc1 | 14.6 µM [falling, single point] | –
25 | COc1ccc2c(c1)C(c1ccc(C)o1)=NNC(c1ccccc1)=N2 | 10 µM [falling, partial curve] | –
26 | COC(=O)c1ccccc1NC(=O)NCCc1ccc(OC)c(OC)c1 | 35.5 µM [falling, single point] | –
27 | C=CCn1c(-c2sc3nc(C)cc(C)c3c2N)n[nH]c1=S | 10 µM [rising, partial curve, poor fit] | –
28 | CCOc1ccc(-c2n[nH]c(C)c2-c2ccccc2OC)c(O)c1 | 35.5 µM [falling, single point] | –
29 | O=C(Nc1nccs1)c1cccc(NC(=O)C2CC2)c1 | 0.92 µM [falling, partial curve] | –
30 | COCCNC(=S)NN=C1CCCCC1 | 35.5 µM [falling, single point] | 25.1 µM [falling, single point]
31 | O=C(CCCn1c(=S)[nH]c2cc3c(cc2c1=O)OCO3)NCc1ccccc1Cl | 3.16 µM [falling, single point] | –
32 | CC(C)c1ccc(CNNC(=O)c2ccccc2)cc1 | 10 µM [falling, partial curve, poor fit] | –
33 | CCOC(=O)c1cnn(-c2nc(-c3ccccc3)cs2)c1C(F)(F)F | 22.4 µM [rising, single point] | –
34 | Cc1cccc(NC(=S)NNC(=O)Cc2ccccc2)c1 | 25.9 µM [rising, single point] | –
35 | Cc1ccc(NC(=O)CSc2nc(N)c(-c3ccccc3)c(=O)[nH]2)cc1Cl | 15.8 µM [rising, single point] | –
36 | Cc1ccc2nc(NC(=S)NC(=O)c3ccco3)sc2c1 | 14.6 µM [falling, partial curve, poor fit] | –
37 | Cc1nnc(-c2cccc(Br)c2)c2cn(-c3cccc(Br)c3)nc12 | 15.8 µM [rising, partial curve, poor fit] | –
38 | CCOC(=O)c1c(O)cc(C)cc1Nc1ccccc1 | 11.2 µM [rising, single point] | –
39 | Cc1cccn2c(=O)c3cc(C(=O)NC4CCCC4)c(=N)n(C4CCCC4)c3nc12 | 1.84 µM [rising, full curve] | –
40 | Cc1nc(-c2cccc(NC(=O)COc3ccc(Cl)cc3)c2)cs1 | 35.5 µM [falling, single point] | –
41 | COc1ccc(C(=O)OCC(=O)NCCCc2ccccc2)c(OC)c1 | 35.5 µM [falling, single point] | –
